Results from publication PMC9724678, “The Autophagy Receptor TAX1BP1 (T6BP) improves antigen presentation by MHC‐II molecules” (EMBO Reports, 2022).
These are yes or no findings as the source states them, for the method shown. In cells and extracts the contact can be indirect. Some binding calls cover weakened binding; strength is not graded here.

By UniProt entry, the sequences of proteins in these tests, tags left out.
UniProt Q86VP1: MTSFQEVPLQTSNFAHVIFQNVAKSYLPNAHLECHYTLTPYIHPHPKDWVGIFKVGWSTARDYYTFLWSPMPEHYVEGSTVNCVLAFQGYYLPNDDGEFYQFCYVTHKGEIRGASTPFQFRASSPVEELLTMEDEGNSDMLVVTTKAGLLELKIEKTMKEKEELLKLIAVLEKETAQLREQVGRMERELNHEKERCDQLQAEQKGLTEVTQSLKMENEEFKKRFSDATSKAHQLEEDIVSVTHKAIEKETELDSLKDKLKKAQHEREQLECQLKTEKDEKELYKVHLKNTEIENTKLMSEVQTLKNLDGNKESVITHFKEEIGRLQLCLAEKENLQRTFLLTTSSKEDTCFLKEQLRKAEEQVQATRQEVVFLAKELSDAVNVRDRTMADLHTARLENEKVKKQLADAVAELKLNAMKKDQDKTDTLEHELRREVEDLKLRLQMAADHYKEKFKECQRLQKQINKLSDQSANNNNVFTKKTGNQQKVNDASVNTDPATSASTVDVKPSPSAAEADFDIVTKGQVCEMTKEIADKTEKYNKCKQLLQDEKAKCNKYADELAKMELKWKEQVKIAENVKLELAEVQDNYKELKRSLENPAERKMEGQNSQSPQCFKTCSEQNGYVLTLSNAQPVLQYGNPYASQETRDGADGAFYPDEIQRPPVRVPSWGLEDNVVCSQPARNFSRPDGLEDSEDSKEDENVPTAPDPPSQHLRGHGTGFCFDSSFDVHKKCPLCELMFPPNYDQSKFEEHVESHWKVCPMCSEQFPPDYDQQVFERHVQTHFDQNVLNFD

Key:
[1] = target: T6BP (TAX1BP1), endogenous (human (endogenous in HeLa-CIITA, DG-75, KG-1)) (UniProt Q86VP1); assay: proximity ligation; fixed HeLa-CIITA cells 48 h after siCTRL or siT6BP, anti-T6BP (rabbit) and anti-CANX (mouse), Duolink PLA, dots per cell
[2] = target: T6BP (TAX1BP1), endogenous (human (endogenous in HeLa-CIITA, DG-75, KG-1)) (UniProt Q86VP1); assay: co-IP; endogenous proteins from HeLa-CIITA lysate; anti-TAX1BP1 HPA024432 with protein A Sepharose or anti-CANX PA5-34754 on protein A magnetic beads; Western blot; beads without antibody as control
[3] = target: T6BP (TAX1BP1), endogenous (human (endogenous in HeLa-CIITA, DG-75, KG-1)) (UniProt Q86VP1); assay: co-IP; endogenous proteins from B (DG-75) cells; IP with anti-T6BP or anti-CANX, Western blot; beads without antibody as control
[4] = target: T6BP (TAX1BP1), endogenous (human (endogenous in HeLa-CIITA, DG-75, KG-1)) (UniProt Q86VP1); assay: co-IP; endogenous proteins from dendritic-like (KG-1, DC) cells; IP with anti-T6BP or anti-CANX, Western blot; beads without antibody as control

Measured: binding

B1: Calnexin (CANX), endogenous (natural protein, UniProt P27824 21-592, looked up)
chain: HDGHDDDVIDIEDDLDDVIEEVEDSKPDTTAPPSSPKVTYKAPVPTGEVYFADSFDRGTLSGWILSKAKKDDTDDEIAKYDGKWEVEEMKESKLPGDKGLVLMSRAKHHAISAKLNKPFLFDTKPLIVQYEVNFQNGIECGGAYVKLLSKTPELNLDQFHDKTPYTIMFGPDKCGEDYKLHFIFRHKNPKTGIYEEKHAKRPDADLKTYFTDKKTHLYTLILNPDNSFEILVDQSVVNSGNLLNDMTPPVNPSREIEDPEDRKPEDWDERPKIPDPEAVKPDDWDEDAPAKIPDEEATKPEGWLDDEPEYVPDPDAEKPEDWDEDMDGEWEAPQIANPRCESAPGCGVWQRPVIDNPNYKGKWKPPMIDNPSYQGIWKPRKIPNPDFFEDLEPFRMTPFSAIGLELWSMTSDIFFDNFIICADRRIVDDWANDGWGLKKAADGAAEPGVVGQMIEAAEERPWLWVVYILTVALPVFLVILFCCSGKKQTSGMEYKKTDAPQPDVKEEEEEKEEEKDKGDEEEEGEEKLEEKQKSDAEEDGGTVSQEEEDRKPKAEEDEILNRSPRNRKPRRE
notes: ER-resident chaperone calnexin, endogenous; source: endogenous, HeLa-CIITA, DG-75 (B) and KG-1 (dendritic-like) lysates; endogenous in fixed HeLa-CIITA cells
binds: [1] | [2] | [3] | [4]
